The nature of this assay: IkB Signaling. The conditions noted are these: ABC-DLBCL IkBa-CBG/CBR dual luciferase ratio (green luciferase fused to IkBa over red control in OCI-Ly3 lymphoma cells), 4 h. The procedure, abridged:
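Curves were fitted separately to fusion (green), unfused (red) and ratio luminescence, then classed by r2, magnitude and activity. Cells: OCI-Ly3, 4 h compound plus doxycycline at 37C; 10 uM MG-132 defined full response.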

[1] abbreviates: measured here: control luc red channel unless noted.
Where [2] appears, read: measured here: IkB-luc green channel.
[3] abbreviates: measured here: control luc red channel.

The other results are listed elsewhere or left out. Further columns of the screen follow, without active or inactive calls. Most of these compounds were active or inconclusive in the main read-out, so they are no random draw. Words in brackets tell the shape of the fitted curve; partial curves, single points and poor fits give uncertain potencies.

As for `COc1cc(NC(=O)c2cnc3c(-c4ccc(F)cc4)c(C)nn3c2C)cc(OC)c1`, under setting [1], the half-maximal activity concentration (AC50) is 31.6 µM [falling, single point].

In the case of `CC1=C(/C=C/C(C)=C/C=C/C(C)=C/C=O)C(C)(C)CCC1`, the concentration at half-maximal activity (AC50) is, setting by setting: under setting [2], 0.02 µM [rising, full curve, poor fit]; under setting [3], 0.01 µM [rising, full curve].

On to `C/C=C/Cn1c(SCCCc2ccccc2)nc2c1c(=O)[nH]c(=O)n2C`, for which the AC50 under setting [2] was 31.6 µM [falling, partial curve] and the concentration at half-maximal activity (AC50) under setting [3] was 15.8 µM [falling, partial curve].

As for `Cc1ccc(-c2nc3ccc(Cl)cn3c2Nc2ccc3c(c2)OCCO3)s1`, the AC50 under setting [1] was 1 µM [falling, partial curve].

Consider `CCCOc1ccc(CN(C(=O)c2nc(SC(C)C)ncc2Cl)C2CCS(=O)(=O)C2)cc1` (centres undefined), for which the AC50 under setting [1] was 39.8 µM [falling, single point].

As for `CSc1ccc(CCNC(=O)CCc2c(C)nc3cc(-c4ccccc4)nn3c2C)cc1`, the half-maximal activity concentration (AC50) under setting [1] is 3.98 µM [falling, partial curve].

As to `N#Cc1ccccc1Cn1c(=O)n(Cc2ccc(C(=O)NC3CCN(Cc4ccccc4)CC3)cc2)c(=O)c2ccccc21`, the AC50 under setting [1] is 0.0794 µM [rising, full curve, poor fit].

Consider `O=C(Nc1c(C(=O)Nc2cccc(F)c2)oc2ccccc12)c1cc2ccccc2o1`, for which, under setting [1], the concentration at half-maximal activity (AC50) was 0.251 µM [falling, partial curve].

Take `CCc1cc2c(NCc3ccco3)ncnc2s1`: the AC50 under setting [1] was 20 µM [falling, partial curve].

On to `COc1cc2[nH]c(=O)n(CCCCCC(=O)NCCc3ccccc3)c(=O)c2cc1OC`, for which the AC50 under setting [1] was 0.0794 µM [falling, full curve, poor fit].

Take `COc1ccc(CCNC(=O)CCCCCn2c(=O)[nH]c3cc(OC)c(OC)cc3c2=O)cc1OC`: under setting [1], the concentration at half-maximal activity (AC50) was 12.6 µM [falling, partial curve].

For `CCOC(=O)c1cccc(NC(c2nnc(-c3ccccc3)o2)c2ccccc2F)c1` (centres undefined), the concentration at half-maximal activity (AC50) under setting [1] is 20 µM [falling, partial curve].

With `CCc1ccc(NC(=O)Cn2c(=O)oc3cc(S(=O)(=O)NCc4ccccc4)ccc32)cc1`, the concentration at half-maximal activity (AC50) under setting [1] was 0.158 µM [falling, full curve, poor fit].

As to `Cc1ccc(CNC(=O)C2CCCN(c3nnc(-n4c(C)ccc4C)s3)C2)cc1` (centres undefined), the AC50 under setting [1] was 31.6 µM [falling, single point].

As to `CCC(c1nnnn1CCc1ccccc1)N(Cc1ccco1)Cc1cc2c(C)ccc(C)c2[nH]c1=O` (centres undefined), the AC50 under setting [1] is 5.01 µM [falling, full curve].

`COc1ccc(NC(=O)CSc2nc(O)c(C/C=C/c3ccccc3)c(=O)[nH]2)cc1`: the concentration at half-maximal activity (AC50) under setting [1] is 15.8 µM [falling, partial curve].

For the compound `CCOC(=O)C(C(=O)N1CCOCC1)C1CCCCC1` (centres undefined), under setting [1], the AC50 was 20 µM [falling, partial curve].

Turning to `O=C(NCc1ccccc1)C1CCN(C(=O)c2cnn(-c3ccccc3)c2-n2cccc2)CC1`, the half-maximal activity concentration (AC50) under setting [1] is 0.0631 µM [falling, full curve, poor fit].

Regarding `COc1ccc2cc(C(=O)NCc3ccc4c(c3)CCN4C(=O)c3ccc(C)cc3)[nH]c2c1`, the AC50 under setting [1] is 39.8 µM [falling, single point].

In the case of `O=C(NCc1ccccc1Cl)c1ccc(CSCc2cccc(F)c2)o1`, under setting [1], the concentration at half-maximal activity (AC50) is 39.8 µM [falling, single point].

For `O=C(O)CCn1cnc2onc(-c3ccccc3Cl)c2c1=O`, the AC50 under setting [1] is 0.316 µM [rising, full curve, poor fit].

As to `O=C(Nc1c(C(=O)Nc2cccc(C(F)(F)F)c2)oc2ccccc12)c1cc(=O)c2ccccc2o1`, under setting [1], the AC50 was 10 µM [rising, partial curve].

For `O=C(NCc1ccc(Cl)cc1)c1ccc2c(c1)NC(=O)C(CS(=O)(=O)Cc1ccccc1Cl)N2` (centres undefined), the AC50 under setting [1] is 25.1 µM [falling, single point].

Take `CCn1c(=O)c2cc(C(=O)NCCCN(C)Cc3ccccc3)sc2c2ccccc21`: the concentration at half-maximal activity (AC50) under setting [1] is 15.8 µM [falling, partial curve].

For the compound `CCc1cccc(NC(=O)Cn2cc(C(=O)c3ccncc3)c(=O)c3cc(C)c(C)cc32)c1`, the AC50 under setting [1] is 15.8 µM [falling, single point].

As for `COc1ccc(-c2cn3c(C)c(C(=O)NCCN4CCOCC4)sc3n2)cc1`, under setting [1], the half-maximal activity concentration (AC50) was 1 µM [falling, full curve].

With `COC(=O)c1cnc(N2CCN(c3ccccc3OC)CC2)c2ccccc12`, the AC50 under setting [1] was 39.8 µM [falling, partial curve].

Take `CCOC(=O)c1sc2ccccc2c1S(=O)(=O)NCc1ccc(F)cc1`: the AC50 under setting [1] was 12.6 µM [falling, partial curve].

On to `CCC(C)NC(=O)c1cc(-c2ccc(OC)cc2)on1` (centres undefined), for which the AC50 under setting [1] is 2 µM [falling, partial curve].

Take `COc1ccc(Nc2nc(N3CCCC3)nc3ccccc23)c(OC)c1`: the AC50 under setting [1] was 25.1 µM [falling, single point].

For `CCOC(=O)c1ccc(NC(=O)CSc2nccn2-c2ccc(OCC)cc2)cc1`, under setting [1], the concentration at half-maximal activity (AC50) was 3.16 µM [falling, full curve, poor fit].

In the case of `Cc1cccc(N2CCN(C(=O)Cn3cnc4sc(C)c(S(=O)(=O)N5CCN(c6ncccn6)CC5)c4c3=O)CC2C)c1` (centres undefined), under setting [1], the concentration at half-maximal activity (AC50) was 31.6 µM [falling, single point].

For the compound `FC(F)(F)c1cccc(-c2nnn3c2nc(NC2CCCCC2)c2ccccc23)c1`, under setting [1], the concentration at half-maximal activity (AC50) is 20 µM [falling, partial curve].

As for `O=C1CCN(S(=O)(=O)c2ccccc2)C2CCCCC12` (centres undefined), the half-maximal activity concentration (AC50) under setting [1] is 12.6 µM [falling, partial curve].

As for `CCC(C)NC(=O)C1CCN(C(=O)c2ccc(-n3ccc4ccccc43)s2)CC1` (centres undefined), under setting [1], the AC50 was 2.51 µM [falling, full curve].

Take `COc1cc([N+](=O)[O-])ccc1NC(=O)N1CCN(c2cc(-c3noc(C)n3)ccc2C)CC1`: under setting [1], the AC50 was 1 µM [rising, single point].

`COc1ccc(NC(=O)C(C)n2nnc3sc(-c4ccccc4)cc3c2=O)cc1Cl` (centres undefined): under setting [1], the concentration at half-maximal activity (AC50) was 3.98 µM [falling, partial curve].

As to `CCOc1ccc(CCNC(=O)c2cc(=O)[nH]c3ccc(S(=O)(=O)N4CCCCC4)cc23)cc1OCC`, the concentration at half-maximal activity (AC50) under setting [1] was 1 µM [rising, partial curve].

Turning to `CC(C)C(=O)Nc1ccc(NC(=O)c2ccco2)cn1`, the AC50 under setting [1] was 0.00316 µM [rising, full curve, poor fit].

As for `COc1cccc(NC(=O)C(=O)NCCc2csc(-c3ccc(C(F)(F)F)cc3)n2)c1`, under setting [1], the half-maximal activity concentration (AC50) was 0.1 µM [falling, full curve].

With `CCCOc1ccc2oc(=O)c3c(c2c1)CCCN3C(=O)CN(C)Cc1ccccc1`, under setting [1], the AC50 is 12.6 µM [falling, partial curve].

In the case of `Cc1cccc(N(C)c2nc3ccc(C)cc3n3cnnc23)c1`, under setting [1], the half-maximal activity concentration (AC50) is 12.6 µM [falling, partial curve].

As to `CCCCOC(=O)c1[nH]c2c(c1C)C(=O)CC(c1cc(OC)c(OC)c(OC)c1)C2` (centres undefined), the half-maximal activity concentration (AC50) under setting [1] is 2.51 µM [falling, full curve].

In the case of `COc1ccccc1-c1cc(C(=O)N2CCc3ccccc3C2)no1`, the half-maximal activity concentration (AC50) under setting [1] is 7.94 µM [falling, partial curve].

As for `O=C(Nc1nnc(S(=O)(=O)N2CCCCCC2)s1)c1ccccc1Cl`, under setting [1], the AC50 is 15.8 µM [falling, partial curve].

As for `CCOc1ccc(NC(=O)c2cc3c(s2)-c2ccccc2OC3)cc1`, the concentration at half-maximal activity (AC50) under setting [1] is 6.31 µM [falling, full curve].

Consider `Cc1cccc(NC(=O)C(Cc2ccccc2)n2cccc2)c1C` (centres undefined), for which the AC50 under setting [1] was 25.1 µM [falling, single point].

In the case of `COC(=O)c1cc2sccc2n1Cc1nc(-c2cccc(Br)c2)oc1C`, the AC50 under setting [1] was 39.8 µM [falling, partial curve].

For the compound `COc1ccccc1Nc1c2c(nc3ccc(NC(=O)c4cccc(OC)c4OC)cc13)CCCC2`, under setting [1], the half-maximal activity concentration (AC50) was 31.6 µM [falling, single point].

With `COc1ccc(CCNC(=O)c2cnc3sc(N4CCC(C)CC4)nn3c2=O)cc1OC`, under setting [1], the AC50 is 31.6 µM [rising, partial curve].

Turning to `O=C(Cc1ccc(F)cc1)NCc1nc2cccnc2n1Cc1ccc(F)cc1`, under setting [1], the half-maximal activity concentration (AC50) was 39.8 µM [rising, single point].

For the compound `FC(F)(F)c1cccc(N2CCN(Cc3nnc(-c4ccc5c(c4)OCO5)o3)CC2)c1`, the concentration at half-maximal activity (AC50) under setting [1] is 20 µM [falling, partial curve].

Turning to `CSc1cccc(NC(=O)Nc2ccccc2)c1`, the AC50 under setting [1] was 10 µM [falling, partial curve].

As for `CC(C)(C)C1CCc2c(sc(NC(=O)CCC(=O)O)c2C(=O)Nc2ccccc2C(F)(F)F)C1` (centres undefined), the AC50 under setting [1] was 20 µM [falling, partial curve].

Turning to `CCc1ccc2c(c1)-c1ccccc1S(=O)(=O)N2CC(=O)N1CCC(C)CC1`, the concentration at half-maximal activity (AC50) under setting [1] is 12.6 µM [falling, partial curve].

Regarding `CC1CCN(S(=O)(=O)c2ccc3c(c2)N(CC(=O)N2CCN(c4ccccc4)CC2)C(=O)CO3)CC1`, the concentration at half-maximal activity (AC50) under setting [1] is 1.58 µM [falling, partial curve].

Regarding `COc1ccccc1C(=O)Nc1nc2nc(C)c(Cc3ccccc3)c(=O)n2[nH]1`, the AC50 under setting [1] was 10 µM [falling, partial curve].

On to `COc1cccc(Cn2c(CNS(=O)(=O)c3ccc4c(c3)CCCC4)nc3cccnc32)c1`, for which the AC50 under setting [1] is 1.26 µM [rising, full curve].

As to `CCOC1=NC(C(=O)O)c2ccccc2/C(=C(/C)Cl)N1` (centres undefined), the AC50 under setting [1] was 31.6 µM [falling, single point].

On to `COc1ccc(O)c(-c2c(-c3ccc(Cl)cc3)n[nH]c2C)c1`, for which the AC50 under setting [1] was 15.8 µM [falling, partial curve].

With `Cc1ccc(Nc2cc(C(=O)NCc3cccs3)c3ccccc3n2)c(C)c1`, under setting [1], the concentration at half-maximal activity (AC50) is 3.16 µM [falling, partial curve].

For `Cc1ccccc1N(CC(=O)Nc1ccc(F)cc1)S(C)(=O)=O`, under setting [1], the half-maximal activity concentration (AC50) was 0.316 µM [falling, full curve].

For orientation: AC50 means the midpoint of the concentration-response curve, whichever way the signal moves.

For the origin of these results see PubChem BioAssay AID445 (National Center for Advancing Translational Sciences (NCATS), 2006).
